Measured values taken from PMC11610139.
No constants are given. Whether binding was seen depends on the method and setting. In cells and extracts the contact can be indirect. These calls come from enrichment with a bait or labelling near it, and not all partners need be listed.

Chains of the proteins cited; added tags and fusions are not shown. Residues count along the entry.
UniProt P55854, residues 1-92: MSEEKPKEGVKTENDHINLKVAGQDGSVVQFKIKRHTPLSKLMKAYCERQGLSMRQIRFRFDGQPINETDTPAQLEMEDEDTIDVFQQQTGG
UniProt Q13263: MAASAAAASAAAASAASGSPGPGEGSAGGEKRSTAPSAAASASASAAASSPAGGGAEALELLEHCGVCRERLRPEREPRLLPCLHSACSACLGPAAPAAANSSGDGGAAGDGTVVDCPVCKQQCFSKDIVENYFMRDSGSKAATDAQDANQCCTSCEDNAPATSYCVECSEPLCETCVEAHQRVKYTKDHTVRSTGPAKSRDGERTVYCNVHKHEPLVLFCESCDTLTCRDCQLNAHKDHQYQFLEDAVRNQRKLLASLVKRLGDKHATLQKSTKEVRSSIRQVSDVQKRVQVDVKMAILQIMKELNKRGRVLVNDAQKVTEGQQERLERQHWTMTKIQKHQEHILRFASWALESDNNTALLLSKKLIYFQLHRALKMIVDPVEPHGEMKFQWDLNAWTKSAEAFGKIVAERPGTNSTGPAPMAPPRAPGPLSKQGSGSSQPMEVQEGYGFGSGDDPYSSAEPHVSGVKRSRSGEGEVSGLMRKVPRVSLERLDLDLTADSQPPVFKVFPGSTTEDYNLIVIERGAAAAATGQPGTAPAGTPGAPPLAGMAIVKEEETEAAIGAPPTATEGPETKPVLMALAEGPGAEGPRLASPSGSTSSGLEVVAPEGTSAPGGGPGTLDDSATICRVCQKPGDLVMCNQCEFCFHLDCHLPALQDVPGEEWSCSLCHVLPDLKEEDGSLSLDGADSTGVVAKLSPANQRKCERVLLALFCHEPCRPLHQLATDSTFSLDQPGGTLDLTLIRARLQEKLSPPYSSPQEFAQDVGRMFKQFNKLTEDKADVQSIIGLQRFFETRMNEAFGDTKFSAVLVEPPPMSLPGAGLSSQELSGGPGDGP
UniProt O75592: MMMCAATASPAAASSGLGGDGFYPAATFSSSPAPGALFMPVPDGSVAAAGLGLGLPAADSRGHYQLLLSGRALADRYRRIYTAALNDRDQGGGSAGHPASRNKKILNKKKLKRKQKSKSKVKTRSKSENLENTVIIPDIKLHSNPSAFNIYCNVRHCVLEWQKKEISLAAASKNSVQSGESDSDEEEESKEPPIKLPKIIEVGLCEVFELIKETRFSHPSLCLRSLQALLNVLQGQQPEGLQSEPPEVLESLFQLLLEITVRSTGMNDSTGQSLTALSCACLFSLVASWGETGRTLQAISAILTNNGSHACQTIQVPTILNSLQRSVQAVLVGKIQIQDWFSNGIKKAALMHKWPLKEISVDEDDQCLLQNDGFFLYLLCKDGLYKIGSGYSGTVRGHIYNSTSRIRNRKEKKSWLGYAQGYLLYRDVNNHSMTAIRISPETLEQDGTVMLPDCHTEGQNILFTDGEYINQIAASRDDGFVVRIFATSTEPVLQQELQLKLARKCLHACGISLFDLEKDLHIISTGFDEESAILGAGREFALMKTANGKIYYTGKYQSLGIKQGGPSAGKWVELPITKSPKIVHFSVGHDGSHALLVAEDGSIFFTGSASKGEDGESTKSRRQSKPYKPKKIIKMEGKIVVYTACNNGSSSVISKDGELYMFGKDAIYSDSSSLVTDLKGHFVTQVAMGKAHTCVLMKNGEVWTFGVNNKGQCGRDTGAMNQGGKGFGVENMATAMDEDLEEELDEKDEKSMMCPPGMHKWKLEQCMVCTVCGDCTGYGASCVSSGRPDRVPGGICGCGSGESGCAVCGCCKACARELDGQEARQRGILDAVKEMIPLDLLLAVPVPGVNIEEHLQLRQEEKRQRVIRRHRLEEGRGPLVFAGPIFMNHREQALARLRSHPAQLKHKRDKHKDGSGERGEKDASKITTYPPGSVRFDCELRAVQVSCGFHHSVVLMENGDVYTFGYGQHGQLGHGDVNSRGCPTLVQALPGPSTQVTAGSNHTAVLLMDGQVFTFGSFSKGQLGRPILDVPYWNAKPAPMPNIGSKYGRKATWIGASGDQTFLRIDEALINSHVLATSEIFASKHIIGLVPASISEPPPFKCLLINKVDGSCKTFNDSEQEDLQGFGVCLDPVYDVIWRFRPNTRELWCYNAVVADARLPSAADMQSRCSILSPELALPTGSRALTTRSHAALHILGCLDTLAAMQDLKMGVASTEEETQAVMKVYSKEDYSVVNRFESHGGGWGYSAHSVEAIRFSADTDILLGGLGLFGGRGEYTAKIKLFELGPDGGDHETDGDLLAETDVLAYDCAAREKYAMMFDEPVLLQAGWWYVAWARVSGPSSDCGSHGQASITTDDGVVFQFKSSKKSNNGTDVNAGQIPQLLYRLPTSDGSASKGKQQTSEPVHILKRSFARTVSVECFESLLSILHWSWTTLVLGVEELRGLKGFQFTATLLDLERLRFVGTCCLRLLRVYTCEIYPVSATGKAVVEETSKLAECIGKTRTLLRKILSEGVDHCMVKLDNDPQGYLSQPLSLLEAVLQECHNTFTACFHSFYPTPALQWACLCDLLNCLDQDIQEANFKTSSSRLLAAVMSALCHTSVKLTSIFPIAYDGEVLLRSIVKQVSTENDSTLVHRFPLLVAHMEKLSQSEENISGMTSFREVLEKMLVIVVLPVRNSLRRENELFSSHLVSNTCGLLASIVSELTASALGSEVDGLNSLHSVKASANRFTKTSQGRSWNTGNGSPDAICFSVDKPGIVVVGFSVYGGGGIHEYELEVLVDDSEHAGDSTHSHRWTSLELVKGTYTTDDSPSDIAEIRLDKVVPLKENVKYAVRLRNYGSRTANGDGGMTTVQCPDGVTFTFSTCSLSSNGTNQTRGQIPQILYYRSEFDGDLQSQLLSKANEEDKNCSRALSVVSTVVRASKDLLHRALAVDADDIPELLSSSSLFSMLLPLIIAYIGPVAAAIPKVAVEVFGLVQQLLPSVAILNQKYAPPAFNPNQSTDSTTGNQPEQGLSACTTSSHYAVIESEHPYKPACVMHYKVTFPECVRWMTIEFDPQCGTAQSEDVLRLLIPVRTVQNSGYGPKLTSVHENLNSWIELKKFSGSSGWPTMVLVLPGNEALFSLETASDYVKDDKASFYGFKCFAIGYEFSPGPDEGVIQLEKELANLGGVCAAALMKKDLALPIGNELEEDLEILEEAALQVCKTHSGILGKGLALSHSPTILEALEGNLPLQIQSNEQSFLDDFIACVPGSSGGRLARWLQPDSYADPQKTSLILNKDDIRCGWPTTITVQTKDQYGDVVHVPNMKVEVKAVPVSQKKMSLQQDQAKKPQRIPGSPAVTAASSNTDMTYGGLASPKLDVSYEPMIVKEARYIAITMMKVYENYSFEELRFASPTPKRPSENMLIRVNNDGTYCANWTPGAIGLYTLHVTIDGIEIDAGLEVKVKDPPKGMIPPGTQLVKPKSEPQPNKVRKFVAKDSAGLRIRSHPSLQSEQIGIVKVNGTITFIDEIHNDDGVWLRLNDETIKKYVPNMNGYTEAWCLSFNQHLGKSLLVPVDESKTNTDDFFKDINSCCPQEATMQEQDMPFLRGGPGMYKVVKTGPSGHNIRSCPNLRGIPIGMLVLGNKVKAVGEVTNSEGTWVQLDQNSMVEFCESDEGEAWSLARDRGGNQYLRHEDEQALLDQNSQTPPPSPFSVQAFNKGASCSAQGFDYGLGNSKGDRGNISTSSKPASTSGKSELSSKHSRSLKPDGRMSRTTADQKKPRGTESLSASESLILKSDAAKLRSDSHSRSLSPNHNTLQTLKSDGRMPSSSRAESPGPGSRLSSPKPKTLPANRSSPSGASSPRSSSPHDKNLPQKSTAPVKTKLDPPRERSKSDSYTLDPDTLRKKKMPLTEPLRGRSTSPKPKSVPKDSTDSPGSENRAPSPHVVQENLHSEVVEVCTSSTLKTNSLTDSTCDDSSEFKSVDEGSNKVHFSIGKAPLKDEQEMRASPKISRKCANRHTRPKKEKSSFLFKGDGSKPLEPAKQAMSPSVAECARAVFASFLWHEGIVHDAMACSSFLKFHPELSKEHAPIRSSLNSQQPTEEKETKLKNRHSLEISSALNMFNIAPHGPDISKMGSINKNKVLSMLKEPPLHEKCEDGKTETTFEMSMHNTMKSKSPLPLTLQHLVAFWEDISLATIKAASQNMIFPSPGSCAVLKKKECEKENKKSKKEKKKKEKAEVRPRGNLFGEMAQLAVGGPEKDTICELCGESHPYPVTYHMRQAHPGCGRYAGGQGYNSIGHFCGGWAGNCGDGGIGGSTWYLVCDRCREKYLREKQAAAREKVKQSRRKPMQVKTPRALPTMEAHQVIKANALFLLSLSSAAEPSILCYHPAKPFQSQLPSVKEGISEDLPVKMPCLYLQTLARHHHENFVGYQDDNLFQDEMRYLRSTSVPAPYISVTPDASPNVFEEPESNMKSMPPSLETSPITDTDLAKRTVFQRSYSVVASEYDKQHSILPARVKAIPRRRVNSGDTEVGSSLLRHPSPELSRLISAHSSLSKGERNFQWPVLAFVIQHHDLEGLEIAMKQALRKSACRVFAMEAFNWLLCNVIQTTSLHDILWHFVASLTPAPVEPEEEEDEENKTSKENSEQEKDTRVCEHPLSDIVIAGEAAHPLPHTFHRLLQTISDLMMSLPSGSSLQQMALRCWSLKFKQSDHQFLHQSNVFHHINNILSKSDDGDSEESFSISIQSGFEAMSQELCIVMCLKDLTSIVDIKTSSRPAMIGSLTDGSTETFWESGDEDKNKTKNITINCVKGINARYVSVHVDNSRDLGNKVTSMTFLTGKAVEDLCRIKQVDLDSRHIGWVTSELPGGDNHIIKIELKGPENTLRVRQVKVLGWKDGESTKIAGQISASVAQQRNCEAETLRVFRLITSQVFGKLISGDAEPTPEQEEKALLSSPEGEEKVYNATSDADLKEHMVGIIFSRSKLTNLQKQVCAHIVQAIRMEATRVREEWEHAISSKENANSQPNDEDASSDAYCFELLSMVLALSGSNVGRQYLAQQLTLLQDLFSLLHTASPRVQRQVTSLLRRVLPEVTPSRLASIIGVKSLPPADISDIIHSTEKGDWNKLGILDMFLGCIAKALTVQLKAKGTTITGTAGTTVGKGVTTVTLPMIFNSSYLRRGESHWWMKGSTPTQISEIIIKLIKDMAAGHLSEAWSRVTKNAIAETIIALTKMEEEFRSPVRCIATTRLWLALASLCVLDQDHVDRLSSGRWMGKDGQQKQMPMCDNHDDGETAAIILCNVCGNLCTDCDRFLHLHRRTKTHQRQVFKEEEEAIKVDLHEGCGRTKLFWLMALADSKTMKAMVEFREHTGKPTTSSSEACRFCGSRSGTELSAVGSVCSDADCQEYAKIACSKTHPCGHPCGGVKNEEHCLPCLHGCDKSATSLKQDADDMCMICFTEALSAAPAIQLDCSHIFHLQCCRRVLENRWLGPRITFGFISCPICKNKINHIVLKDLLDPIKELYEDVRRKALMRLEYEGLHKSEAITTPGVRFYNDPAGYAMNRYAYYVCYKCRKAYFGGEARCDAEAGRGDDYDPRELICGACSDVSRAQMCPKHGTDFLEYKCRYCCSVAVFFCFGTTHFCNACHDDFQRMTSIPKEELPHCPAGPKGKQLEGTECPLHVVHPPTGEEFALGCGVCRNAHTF

Molecular target: T1, HDAC7 (UniProt Q8WUI4)
T1 sequence: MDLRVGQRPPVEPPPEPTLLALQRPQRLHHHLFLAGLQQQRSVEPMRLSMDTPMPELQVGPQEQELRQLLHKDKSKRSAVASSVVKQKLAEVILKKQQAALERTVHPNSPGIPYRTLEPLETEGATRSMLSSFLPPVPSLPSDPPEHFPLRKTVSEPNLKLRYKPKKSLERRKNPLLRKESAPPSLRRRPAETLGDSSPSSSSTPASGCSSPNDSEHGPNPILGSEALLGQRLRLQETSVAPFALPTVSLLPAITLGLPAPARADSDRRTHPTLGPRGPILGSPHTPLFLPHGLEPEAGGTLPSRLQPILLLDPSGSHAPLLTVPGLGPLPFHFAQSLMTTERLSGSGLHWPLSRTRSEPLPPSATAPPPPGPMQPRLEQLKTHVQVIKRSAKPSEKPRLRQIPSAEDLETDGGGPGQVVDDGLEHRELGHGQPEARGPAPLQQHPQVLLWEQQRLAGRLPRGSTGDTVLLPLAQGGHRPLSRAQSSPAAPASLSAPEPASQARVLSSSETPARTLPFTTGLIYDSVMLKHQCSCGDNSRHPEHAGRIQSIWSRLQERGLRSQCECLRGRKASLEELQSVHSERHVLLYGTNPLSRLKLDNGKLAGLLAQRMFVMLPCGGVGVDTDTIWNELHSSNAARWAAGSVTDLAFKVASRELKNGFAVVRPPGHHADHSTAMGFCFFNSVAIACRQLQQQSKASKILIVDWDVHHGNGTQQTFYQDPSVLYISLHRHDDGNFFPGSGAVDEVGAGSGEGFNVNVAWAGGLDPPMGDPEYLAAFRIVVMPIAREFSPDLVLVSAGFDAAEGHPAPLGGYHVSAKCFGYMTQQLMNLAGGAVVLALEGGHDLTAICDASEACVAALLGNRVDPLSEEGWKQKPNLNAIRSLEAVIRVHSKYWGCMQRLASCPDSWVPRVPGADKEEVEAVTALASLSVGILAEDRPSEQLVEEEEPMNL
Assay: affinity purification with mass spectrometry; HDAC7 immunoprecipitation, liquid chromatography coupled with tandem mass spectrometry

binding, binds:
SUMO3 (from UniProt P55854 1-92)
TRIM28 (from UniProt Q13263 1-835) (enzyme)
MYCBP2 (from UniProt O75592 1-4678) (enzyme)
